From patent US20240166753A1 (DRAGONFLY THERAPEUTICS, published 2024)
No constants are given. Whether binding was seen depends on the method and setting. Some entries that bind do so weakly or less than the wild type.

Sequences of proteins named here, by UniProt entry; tags and fusion partners are left off. Residues count along the entry.
UniProt P20138, residues 18-364: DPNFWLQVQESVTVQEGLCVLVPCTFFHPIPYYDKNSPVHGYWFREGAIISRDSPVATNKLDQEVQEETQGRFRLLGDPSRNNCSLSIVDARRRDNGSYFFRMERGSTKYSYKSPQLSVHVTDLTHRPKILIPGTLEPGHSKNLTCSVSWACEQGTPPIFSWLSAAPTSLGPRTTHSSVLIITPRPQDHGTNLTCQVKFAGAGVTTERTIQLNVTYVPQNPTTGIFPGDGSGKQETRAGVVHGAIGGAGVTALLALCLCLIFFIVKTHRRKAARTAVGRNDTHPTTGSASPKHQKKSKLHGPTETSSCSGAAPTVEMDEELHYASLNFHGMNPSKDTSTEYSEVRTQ

How the values were obtained:
[1] = molecular target: T1, CD33 expressed on MV4-11 human AML cells (human, UniProt P20138 18-364); assay: flow cytometry, 20 ug/mL, MV4-11 cells, fold over background
T1 construct: whole, on cells; also called cell-expressed CD33

[2] = molecular target: T1, CD33 expressed on MV4-11 human AML cells; assay: flow cytometry on MV4-11 cells, MFI fold over background
[3] = molecular target: T1, CD33 expressed on MV4-11 human AML cells; assay: flow cytometry on MV4-11 cells

Measured: binding

B1: CD33-TriNKET-F04 (ADI-29404 and a CD33-binding domain) (bispecific antibody, V domains shown)
VH 1: QVQLQQWGAGLLKPSETLSLTCAVYGGSFSGYYWSWIRQPPGKGLEWIGEIDHSGSTNYNPSLKSRVTISVDTSKNQFSLKLSSVTAADTAVYYCARARGPWSFDPWGQGTLVTVSS
VL 1: DIQMTQSPSTLSASVGDRVTITCRASQSISSWLAWYQQKPGKAPKLLIYKASSLESGVPSRFSGSGSGTEFTLTISSLQPDDFATYYCEQYDSYPTFGGGTKVEIK
VH 2: QVQLVQSGAEVKKPGASVKVSCKASGYTFTDYVVHWVRQAPGQGLEWMGYINPYNDGTKYNEKFKGRVTMTRDTSISTAYMELSRLRSDDTAVYYCARDYRYEVYGMDYWGQGTLVTVSS
VL 2: DIVLTQSPASLAVSPGQRATITCTASSSVNYIHWYQQKPGQPPKLLIYDTSKVASGVPARFSGSGSGTDFTLTINPVEANDTANYYCQQWRSYPLTFGQGTKLEIK
binds: all assays above
